The list shows only some results of the screen, not a fair sample: it gathers tests that were run many times, whatever their T/C, doses with no T/C, and many T/C values between a quarter and a half above the control. Further doses and runs are listed elsewhere. T/C: endpoint of the treated group in % of that of the vehicle group. Schedule codes are those of the source, taken here to give the interval after Q, in days (D) or hours (H), and the number of doses after X. Some T/C values carry the count of animals alive at the toxicity check (mostly the fifth day); without a count, all were alive then. Some doses have a count of surviving animals in place of a T/C: the source files T/C as zero there, which appears to mark a toxic dose or a test without result, not a measured value. Counts of survivors are from the toxicity check (mostly the fifth day) where no day follows; animals may have died later. Some entries were tested several times; their values stand side by side, smallest first.
System: nude mice, HT29 intrarenal xenograft, tumor weight T/C
Test: NCI In Vivo Anticancer Drug Screen. Data for tumor model HT29;CX-1 Human Adenocarcinoma (MER+) (intrarenal inoculation) in NU/NU Swiss (nude) mice
Settings: T/C endpoint: mean tumor weight change, higher T/C = larger tumour; for T/C: evaluated on day 15
Procedure, shortened: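 Tumor-bearing mice received test compound or vehicle, and tumor size or survival was recorded. Values are the treated-group measurement divided by the vehicle-treated control measurement.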

[1] = dose: 800.0 mg/kg/injection, schedule: Q04DX004 (sc), vehicle: saline with Tween-80
[2] = dose: 75.0 mg/kg/injection, schedule: Q04DX004 (sc), vehicle: Klucel (hydroxypropylcellulose) (HPC)
[3] = dose: 150.0 mg/kg/injection, schedule: Q04DX004 (sc), vehicle: Klucel (hydroxypropylcellulose) (HPC)
[4] = dose: 400.0 mg/kg/injection, schedule: Q04DX004 (sc), vehicle: saline with Tween-80

For COc1cccc2c1C(=O)c1c(O)c3c(c(O)c1C2=O)C[C@@](O)(C(=O)CO)C[C@@H]3OC1CC(N)C(OC)C(C)O1 (some centres undefined), the survivor count (dose: 6.25 mg/kg/injection, schedule: Q04DX004 (sc), vehicle: saline) was 1 of 3 on day 15, the survivor count (dose: 12.5 mg/kg/injection, schedule: Q04DX004 (sc), vehicle: saline) was 0 of 3 on day 15 and the survivor count (dose: 25.0 mg/kg/injection, schedule: Q04DX004 (sc), vehicle: saline) was 0 of 3 on day 15.
CCOC(=O)C1=C(C#N)C2(CCC(OCc3ccccc3)CC2)C(=O)O1 (centres undefined) was tested, and the T/C (dose: 200.0 mg/kg/injection, schedule: Q04DX004 (sc), vehicle: suspension in saline) was 133 % of control and the T/C (dose: 400.0 mg/kg/injection, schedule: Q04DX004 (sc), vehicle: suspension in saline) was 143 % of control.
For CN1C(=O)CC2(CCN(CCCC(=O)c3ccc(F)cc3)CC2)C1=O, the survivor count (dose: 150.0 mg/kg/injection, schedule: Q04DX004 (sc), vehicle: suspension in saline) was 2 of 6 on day 15, the survivor count (dose: 300.0 mg/kg/injection, schedule: Q04DX004 (sc), vehicle: suspension in saline) was 1 of 6 on day 15 and the survivor count (dose: 600.0 mg/kg/injection, schedule: Q04DX004 (sc), vehicle: suspension in saline) was 0 of 6 on day 15.
CO[C@H](/C(C)=C/C=C/C(C)=C/c1coc(C)n1)[C@H](C)[C@H]1C[C@@H](O)[C@@]2(C)O[C@H]2/C=C/[C@@H](C)[C@@H]2C[C@@H](CC(=O)O2)C[C@H]2O[C@@H]2C(=O)O1 was tested, and the survivor count (dose: 1.0 mg/kg/injection, schedule: Q04DX004 (sc), vehicle: Klucel (hydroxypropylcellulose) (HPC)) was 0 of 6 on day 15.
C/C(=N\NC(N)=O)c1cccc(/C(C)=N/NC(N)=O)n1 was tested, and the T/C (dose: 100.0 mg/kg/injection, schedule: Q04DX004 (sc), vehicle: saline with Tween-80) was 137 % of control and the survivor count [1] was 3 of 6 on day 15.
CC(C)CCCCCCCCCCCCC(=O)NCC(=O)NC1C(C)OC(Nc2ncnc3nc[nH]c23)C(O)C1O (centres undefined) was tested, and the survivor count (dose: 8.0 mg/kg/injection, schedule: Q01DX010 (sc), vehicle: distilled water + Tween-80) was 1 of 3 on day 11, the survivor count (dose: 16.0 mg/kg/injection, schedule: Q01DX010 (sc), vehicle: distilled water + Tween-80) was 0 of 3 on day 11 and 1 of 3 on day 11 and the survivor count (dose: 16.0 mg/kg/injection, schedule: Q04DX004 (sc), vehicle: distilled water + Tween-80) was 1 of 3 on day 15. For the same molecule, the survivor count (dose: 32.0 mg/kg/injection, schedule: Q01DX010 (sc), vehicle: distilled water + Tween-80) was 0 of 3 on day 11 and the survivor count (dose: 32.0 mg/kg/injection, schedule: Q04DX004 (sc), vehicle: distilled water + Tween-80) was 0 of 3 on day 15.
In the case of NC(=O)/C=C/C(=O)c1c(Cl)cccc1Cl, the T/C (dose: 18.0 mg/kg/injection, schedule: Q04DX004 (sc), vehicle: saline with Tween-80) is reported as 126 % of control, the survivor count (dose: 72.0 mg/kg/injection, schedule: Q04DX004 (sc), vehicle: saline with Tween-80) is reported as 0 of 6 on day 15 and the survivor count (dose: 144.0 mg/kg/injection, schedule: Q04DX004 (sc), vehicle: saline with Tween-80) is reported as 0 of 6 on day 15.
With COc1ccc2c(c1)CCn1c(C)c(COC(=O)NC(C)C)c(COC(=O)NC(C)C)c1-2 the survivor count (dose: 1200.0 mg/kg/injection, schedule: Q04DX004 (sc), vehicle: distilled water + Tween-80) was 1 of 6 on day 15 and the survivor count (dose: 2400.0 mg/kg/injection, schedule: Q04DX004 (sc), vehicle: distilled water + Tween-80) was 0 of 6 on day 15.
With O=c1[nH]c(=O)n(C2CC(O)C(CO)O2)cc1F (centres undefined) the survivor count (dose: 100.0 mg/kg/injection, schedule: Q01DX010 (sc), vehicle: water) was 1 of 2 on day 11 and the survivor count (dose: 200.0 mg/kg/injection, schedule: Q01DX010 (sc), vehicle: water) was 0 of 3 on day 11.
With O=NN(CCF)C(=O)NC1CCCCC1 the survivor count (dose: 50.0 mg/kg/injection, schedule: Q04DX004 (sc), vehicle: Klucel (hydroxypropylcellulose) (HPC)) was 0 of 6 on day 15, the survivor count [2] was 0 of 6 on day 15 and the survivor count [3] was 0 of 6 on day 15. The survivor count (dose: 300.0 mg/kg/injection, schedule: Q04DX004 (sc), vehicle: Klucel (hydroxypropylcellulose) (HPC)) was 0 of 6 on day 15 and the survivor count (dose: 600.0 mg/kg/injection, schedule: Q04DX004 (sc), vehicle: Klucel (hydroxypropylcellulose) (HPC)) was 0 of 6 on day 15.
With c1cc(-c2cc3ccc(C4=NCCN4)cc3[nH]2)ccc1C1=NCCN1 the survivor count (dose: 200.0 mg/kg/injection, schedule: Q04DX004 (sc), vehicle: saline) was 0 of 5 on day 15.
For C=CS(C=C)=NS(=O)(=O)c1ccc(C)cc1, the T/C [2] was 138 % of control [4 of 6 alive on day 15] and the survivor count [3] was 0 of 6 on day 15.
NC(=O)c1ncn2c(=O)n(CCCl)nnc12 was tested, and the T/C (dose: 12.5 mg/kg/injection, schedule: Q04DX004 (sc), vehicle: suspension in saline) was 138 % of control and the survivor count (dose: 100.0 mg/kg/injection, schedule: Q04DX004 (sc), vehicle: suspension in saline) was 2 of 6 on day 15.
With O=C(O[Si](Cc1ccccc1)(Cc1ccccc1)Cc1ccccc1)N(CCCl)CCCl the T/C [4] was 133 % of control [5 of 6 alive on day 15] and the survivor count [1] was 0 of 6 on day 15.
With Nc1n[n+](-c2ccc(Cl)cc2)no1 the survivor count (dose: 200.0 mg/kg/injection, schedule: Q04DX004 (sc), vehicle: water) was 0 of 6 on day 15.
COC(C(=O)C(O)C(C)O)C1Cc2cc3cc(OC4CC(OC(C)=O)C(OC5CC(O)C(OC)C(C)O5)C(C)O4)cc(O)c3c(O)c2C(=O)C1OC1CC(OC2CC(OC3CC(C)(O)C(OC(=O)C(C)C)C(C)O3)C(O)C(C)O2)C(O)C(C)O1 (centres undefined) was tested, and the survivor count (dose: 4.0 mg/kg/injection, schedule: Q01DX010 (sc), vehicle: saline with Tween-80) was 0 of 3 on day 20 and the survivor count (dose: 8.0 mg/kg/injection, schedule: Q04DX004 (sc), vehicle: saline with Tween-80) was 0 of 3 on day 15.
In the case of CN(C)CC(Cl)CCl (centres undefined), the survivor count (dose: 600.0 mg/kg/injection, schedule: Q04DX004 (sc), vehicle: saline) is reported as 0 of 6 on day 15.
In the case of CC(C#N)(C#N)N=Nc1ccc(Cl)cc1Cl, the T/C [4] is reported as 129 % of control and the T/C [1] is reported as 129 % of control.
With NC(=S)N/N=C/c1ccc(OC(=O)COc2ccc(Cl)cc2)cn1 the T/C (dose: 150.0 mg/kg/injection, schedule: Q04DX004 (sc), vehicle: saline with Tween-80) was 136 % of control and the survivor count (dose: 1200.0 mg/kg/injection, schedule: Q04DX004 (sc), vehicle: saline with Tween-80) was 3 of 6 on day 15.
In the case of COc1cccc2c1C(=O)c1c(O)c3c(c(O)c1C2=O)C[C@@](O)(/C(C)=N/NC(=O)c1ccc(Cl)cc1)C[C@@H]3OC1CC(N)C(O)C(C)O1 (some centres undefined), the survivor count (dose: 80.0 mg/kg/injection, schedule: Q04DX004 (sc), vehicle: water) is reported as 0 of 3 on day 15, the survivor count (dose: 160.0 mg/kg/injection, schedule: Q04DX004 (sc), vehicle: water) is reported as 1 of 3 on day 15 and the survivor count (dose: 320.0 mg/kg/injection, schedule: Q04DX004 (sc), vehicle: water) is reported as 0 of 3 on day 15.
CC(=O)c1c(O)c(C)c(O)c2c1OC1=CC(=O)C(C(C)=O)C(=O)C12C (centres undefined) was tested, and the T/C (dose: 300.0 mg/kg/injection, schedule: Q04DX004 (sc), vehicle: sodium bicarbonate) was 142 % of control, the survivor count (dose: 600.0 mg/kg/injection, schedule: Q04DX004 (sc), vehicle: sodium bicarbonate) was 1 of 6 on day 15 and the survivor count (dose: 800.0 mg/kg/injection, schedule: Q01DX010 (sc), vehicle: sodium bicarbonate) was 1 of 3 on day 11. The survivor count (dose: 1200.0 mg/kg/injection, schedule: Q04DX004 (sc), vehicle: sodium bicarbonate) was 1 of 6 on day 15 and 3 of 6 on day 15 and the survivor count (dose: 2400.0 mg/kg/injection, schedule: Q04DX004 (sc), vehicle: sodium bicarbonate) was 0 of 6 on day 15 and 1 of 6 on day 15.
For CC1=CC2C(O)(CC(CO)=CC3C4C(C)(C)C4(OC(=O)c4ccccc4)C(OC(=O)c4ccccc4)C(C)C32O)C1=O (centres undefined), the survivor count (dose: 10.0 mg/kg/injection, schedule: Q04DX004 (sc), vehicle: saline with Tween-80) was 1 of 6 on day 15, the survivor count (dose: 20.0 mg/kg/injection, schedule: Q04DX004 (sc), vehicle: saline with Tween-80) was 1 of 6 on day 15 and the survivor count (dose: 40.0 mg/kg/injection, schedule: Q04DX004 (sc), vehicle: saline with Tween-80) was 0 of 6 on day 15.

From PubChem BioAssay AID206 (DTP/NCI, 2004)
